Measurements from the supplement of paper PMC8104966.
Values joined by “and” are separate entries in the source; they are usually repeats but may differ in a detail not shown here. Equal values may be shown once. Some of the results follow. This data set is noisy: repeats of one test often differ as much as different tests do.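 U2OS cells expressing ACE2 were combined with U2OS cells expressing full-length spike, and imaging quantified fusion as the fraction of nuclei displaying both cell types' fluorescent markers. Non-toxic compounds with a fusion z-score under -3, i.e., over three standard deviations below the plate's DMSO wells, are called inhibitory hits.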

test system: U2OS ACE2 x SARS-CoV-2 spike co-culture; assay: cell-cell fusion (fraction fused) z-score vs plate DMSO control; higher = more fusion; details: 30 µM; 5 h; toxicity class: non-toxic, passed QC

SMILES	cell-cell fusion (z-score)
C=CC1=C(C(=O)O)N2C(=O)[C@@H](NC(=O)/C(=N\O)c3csc(N)n3)[C@H]2SC1 [Cefdinir]	inactive: 3.57
C[C@H](CCC(=O)O)[C@H]1CC[C@H]2[C@@H]3[C@H](O)C[C@@H]4C[C@H](O)CC[C@]4(C)[C@H]3CC[C@]12C [Chenodeoxycholic acid]	inactive: 3.69
C[N+]1(C)[C@@H]2C[C@@H](OC(=O)C(O)(c3cccs3)c3cccs3)C[C@H]1[C@@H]1O[C@@H]12.[Br-] [Tiotropium bromide]	inactive: 3.3
C=CCc1cc(OC)c2c(c1OC)OCO2	inactive: 1.94
CC(=O)O.CNC(=N)NCCC[C@H](N)C(=O)O [NG-Monomethyl-L-arginine acetate]	inactive: 2.26
Cn1c(CNc2ccc(C(=N)N)cc2)nc2cc(C(=O)N(CCC(=O)O)c3ccccn3)ccc21 [Dabigatran]	inactive: 3.39
Cc1cc2nc3ccc(N(C)C)cc3[s+]c2cc1N.[Cl-]	inactive: 2.13
COc1cc2c(cc1OC)[C@@H]1C(=O)c3ccc(OC)c(CC=C(C)C)c3O[C@@H]1CO2	inactive: -1.28
C#CCN[C@@H]1CCc2ccccc21 [Rasagiline]	inactive: 2.87
Nc1nc(=O)c2ncn(CCC(CO)CO)c2[nH]1 [Penciclovir]	inactive: 1.79
O=c1cc(CO)occ1O	inactive: 1.64
CN1C2C[C@H](OC(=O)[C@H](CO)c3ccccc3)C[C@@H]1[C@@H](O)C2	inactive: 0.727
CCCN(CCC)CCc1cccc2c1CC(=O)N2.Cl [Ropinirole hydrochloride]	inactive: 1.69
COc1ccccc1-c1cc(=O)c2c(OC)cccc2o1	inactive: 1.76
C[C@H]1CCN(C(=O)CC#N)C[C@@H]1N(C)c1ncnc2[nH]ccc12	inactive: 0.86 and inactive: 0.121
Nc1ccc(S(=O)(=O)Nc2ccnn2-c2ccccc2)cc1	inactive: 0.00714
Nc1ccc(S(=O)(=O)Nc2ccnn2-c2ccccc2)cc1 [Sulfaphenazole]	inactive: 0.655
COc1ccccc1OCC(O)CN1CCN(CC(=O)Nc2c(C)cccc2C)CC1 (configuration not stated)	inactive: 2.76
CCOC(=O)c1cnc2c(cnn2CC)c1NN=C(C)C.Cl [Etazolate hydrochloride]	inactive: -0.506
NC(=O)N1c2ccccc2CC(=O)c2ccccc21 [Oxcarbazepine]	inactive: 2.25
C[C@]12CCC3c4ccc(O)cc4CCC3C1C[C@@H](O)[C@@H]2O (some centres not stated)	inactive: 0.747
CC(=O)c1c(C)c2cnc(Nc3ccc(N4CCNCC4)cn3)nc2n(C2CCCC2)c1=O [Palbociclib]	inactive: 2.29
O=c1[nH]c(=O)n([C@H]2C[C@H](O)[C@@H](CO)O2)cc1F [Floxuridine]	inactive: 2.41

SMILES	cell-cell fusion (z-score)
C#C[C@]1(O)CCC2C3CCC4=CC(=O)CC[C@@H]4C3CCC21CC (some centres not stated)	inactive: 2
N#Cc1ccnc(N2C(=O)CC[C@H]2C(=O)N(c2cncc(F)c2)[C@H](C(=O)NC2CC(F)(F)C2)c2ccccc2Cl)c1 [Ivosidenib]	inactive: 0.603
NC(=O)N1c2ccccc2CC(=O)c2ccccc21	inactive: 2.89
N[C@@H](CS(=O)O)C(=O)O [L-Cysteinesulfinic Acid]	inactive: 1.49
OC[C@H]1O[C@H](O[C@]2(CCl)O[C@H](CCl)[C@@H](O)[C@@H]2O)[C@H](O)[C@@H](O)[C@H]1Cl	inactive: 1.14
CCCCOCCOCCOCc1cc2c(cc1CCC)OCO2	inactive: 1.83
COc1c(O)cc(O)cc1O	inactive: 2.23
CC1(C)S[C@@H]2C(N3C(=O)[C@@H](c4ccccc4)NC3(C)C)C(=O)N2[C@H]1C(=O)[O-].[K+] (some centres not stated)	inactive: 0.693
C[C@@H](O)[C@H]1C(=O)N2C(C(=O)O)=C(S[C@@H]3CN[C@H](C(=O)Nc4cccc(C(=O)[O-])c4)C3)[C@H](C)[C@H]12.[Na+] [Ertapenem sodium]	inactive: 2.26
CCc1cncnc1N1CCN(Cc2nc3cc(C(F)(F)F)ccc3[nH]2)CC1	inactive: -0.815
C[C@]12CCC3C(CC[C@H]4C[C@@H](O)CC[C@]34C)C1CCC2=O (some centres not stated)	inactive: 2.59
CC(=O)[C@@]1(O)CC[C@H]2[C@@H]3CCC4=CC(=O)CC[C@]4(C)[C@H]3CC[C@@]21C [17alpha-hydroxyprogesterone]	inactive: 1.48
CC(COc1ccccc1)NC(C)[C@H](O)c1ccc(O)cc1.Cl (some centres not stated)	inactive: 0.217
COc1cc(O)ccc1C(C)=O	inactive: 2.2
CO[C@H]1C[C@H]2CC[C@@H](C)[C@@](O)(O2)C(=O)C(=O)N2CCCC[C@H]2C(=O)O[C@H]([C@H](C)C[C@@H]2CC[C@H](OP(C)(C)=O)[C@H](OC)C2)CC(=O)[C@H](C)/C=C(\C)[C@@H](O)[C@@H](OC)C(=O)[C@H](C)C[C@H](C)/C=C/C=C/C=C/1C [Ridaforolimus (Deforolimus, MK-8669)]	active: -9.98
Nc1ccc(S(=O)(=O)[N-]c2cnc3ccccc3n2)cc1.[Na+]	inactive: 1.1
C[C@@H]1CC(=O)NN=C1c1ccc(NN=C(C#N)C#N)cc1	inactive: 1.92
Cc1nccn1CC1CCc2c(c3ccccc3n2C)C1=O.Cl.O.O (configuration not stated) [Ondansetron hydrochloride]	inactive: 3.27
Br.Br.N=C(N)SCCN [2-(2-Aminoethyl)isothiourea dihydrobromide]	inactive: 1.56
Br.Br.N=C(N)SCCN	inactive: 3.22
N[C@@H]1CCCC[C@H]1N.O=C1[O][Pt][O]C1=O [Oxaliplatin]	inactive: 1.26
CCN(CCCc1ccccc1)CCCc1ccccc1.O=C(O)CC(O)(CC(=O)O)C(=O)O	inactive: 1.75
NCCc1c[nH]c2ccc(C(N)=O)cc12.O=C(O)/C=C\C(=O)O [5-Carboxamidotryptamine maleate]	inactive: -0.017

SMILES	cell-cell fusion (z-score)
Cn1c(=O)c2[nH]c(-c3ccccc3)nc2n(C)c1=O [1,3-Dimethyl-8-phenylxanthine]	inactive: 2.41
O=Cc1ccc(O)c(O)c1O	inactive: 2.6
CC1O[C@@H](Oc2c(-c3ccc(O)c(O)c3)oc3cc(O)cc(O)c3c2=O)[C@H](O)[C@H](O)[C@H]1O (some centres not stated)	inactive: 2.81
CCOC(=O)O[C@]1(C(=O)COC(=O)CC)CC[C@H]2[C@@H]3CCC4=CC(=O)C=C[C@]4(C)[C@H]3[C@@H](O)C[C@@]21C	inactive: 3.81
Cc1nc2ccccc2n1Cc1ccc(Cl)cc1	active: -4.77
CC(C)(C)NCC(O)c1ccccc1Cl.Cl (configuration not stated)	inactive: -1.09
CC(C)(C)NCC(O)c1ccccc1Cl.Cl (configuration not stated) [Tulobuterol hydrochloride]	active: -4.37
COc1ccc(F)c(F)c1C(=O)c1cnc(NC2CCN(S(C)(=O)=O)CC2)nc1N	inactive: 2.35
C[C@H]1C2Cc3ccc(O)cc3[C@@]1(C)CCN2CC1CC1 (single isomer, unassigned; (+)) [(+)-Cyclazocine]	inactive: 1.32
Cc1ccc(-c2csc3ncnc(SCCC(=O)O)c23)cc1	inactive: 1.65
Cc1nnc(C(C)C)n1C1CC2CCC(C1)N2CC[C@H](NC(=O)C1CCC(F)(F)CC1)c1ccccc1 (some centres not stated) [Maraviroc]	inactive: 1.52
NC[C@H]1O[C@H](O[C@H]2C(O[C@@H]3O[C@H](CO)[C@@H](O)[C@H]3O)[C@@H](O)[C@H](N)C[C@@H]2N)[C@H](N)[C@@H](O)[C@@H]1O.O=S(=O)(O)O (some centres not stated)	inactive: 0.484
O=C(O)C1CCNCC1 [Isonipecotic acid]	inactive: 2.31
CCN1CCN(C(=O)N[C@@H](C(=O)N[C@@H]2C(=O)N3[C@@H]2SC(C)(C)[C@@H]3C(=O)[O-])c2ccccc2)C(=O)C1=O.[Na+] [Piperacillin sodium salt]	inactive: 2.7
COc1ccc(-c2cc(=O)c3c(OC)cc(OC)cc3o2)cc1	inactive: 1.29
O=C(O)Cc1ccccc1Nc1c(Cl)cccc1Cl [Diclofenac]	inactive: 0.809
CNNCc1ccc(C(=O)NC(C)C)cc1.Cl [Procarbazine hydrochloride (Matulane)]	inactive: 1.43
CO[C@H]1C[C@H]2CC[C@@H](C)[C@@](O)(O2)C(=O)C(=O)N2CCCC[C@H]2C(=O)O[C@H]([C@H](C)C[C@@H]2CC[C@H](OC(=O)C(C)(CO)CO)[C@H](OC)C2)CC(=O)[C@H](C)/C=C(\C)[C@@H](O)[C@@H](OC)C(=O)[C@H](C)C[C@H](C)/C=C/C=C/C=C/1C [Temsirolimus (Torisel)]	inactive: 0.708
CO[C@H]1C[C@H]2CC[C@@H](C)[C@@](O)(O2)C(=O)C(=O)N2CCCC[C@H]2C(=O)O[C@H]([C@H](C)C[C@@H]2CC[C@H](OC(=O)C(C)(CO)CO)[C@H](OC)C2)CC(=O)[C@H](C)/C=C(\C)[C@@H](O)[C@@H](OC)C(=O)[C@H](C)C[C@H](C)/C=C/C=C/C=C/1C	active: -4.9
NS(=O)(=O)c1cc2c(cc1C(F)(F)F)NCNS2(=O)=O	inactive: 2.02
CC1=Nc2ccc(Cl)cc2S(=O)(=O)N1 [Diazoxide]	inactive: 3.45

Some of the entries so far, with bars between the fields:
SMILES | cell-cell fusion (z-score)
CCOC(=O)O[C@]1(C(=O)COC(=O)CC)CC[C@H]2[C@@H]3CCC4=CC(=O)C=C[C@]4(C)[C@H]3[C@@H](O)C[C@@]21C | inactive: 3.81
Cc1nnc(C(C)C)n1C1CC2CCC(C1)N2CC[C@H](NC(=O)C1CCC(F)(F)CC1)c1ccccc1 (some centres not stated) [Maraviroc] | inactive: 1.52
